Assay [1] has as its target Protein Interacting with C Kinase-1 (PICK1), purified recombinant (UniProt Q9EP80). Briefly: fluorescence polarization, purified PICK1 in solution. On the technique in general: In fluorescence polarisation assays a small probe gives low polarisation when free and higher when bound to something large.
For assay [2] the target is unchanged. Briefly: fluorescence polarization competition, tracer 5FAM-DATC5, purified PICK1.

Protein sequences, listed by entry. Tags and fused reporters are not part of them.
UniProt Q9EP80: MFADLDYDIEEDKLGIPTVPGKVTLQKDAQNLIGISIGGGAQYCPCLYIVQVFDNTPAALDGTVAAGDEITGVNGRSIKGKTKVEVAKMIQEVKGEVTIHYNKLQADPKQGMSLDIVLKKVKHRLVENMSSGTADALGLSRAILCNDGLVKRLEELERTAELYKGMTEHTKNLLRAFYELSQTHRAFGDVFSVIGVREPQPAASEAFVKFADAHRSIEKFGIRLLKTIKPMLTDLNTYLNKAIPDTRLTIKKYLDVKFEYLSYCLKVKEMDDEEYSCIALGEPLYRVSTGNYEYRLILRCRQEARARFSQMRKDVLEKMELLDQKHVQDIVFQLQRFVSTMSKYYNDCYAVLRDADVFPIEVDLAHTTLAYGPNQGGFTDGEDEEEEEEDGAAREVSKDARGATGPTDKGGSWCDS

Results are given in words; binding and its absence hold for the method and conditions named. Some entries that bind do so weakly or less than the wild type.

B1: DAT-C8 (peptide)
peptide: TLRHWLKV
As to B1, in assay [1], the binding entry is recorded as “binds”.

B2: C5 peptide with X1 substituted to A (AWLKV) (peptide)
peptide: AWLKV
Turning to B2, in assay [2], the binding entry is reported as “binds”.

B3: C5 peptide with X3 (P-2) substituted to I (HWIKV) (peptide)
peptide: HWIKV
B3: the binding entry in assay [2] is on record as “binds”.

B4: C5 peptide with X1 substituted to I (IWLKV) (peptide)
peptide: IWLKV
Turning to B4, the binding result in assay [2] is “binds”.

B5: DAT-C12 (peptide)
peptide: VRQFTLRHWLKV
As to B5, the binding result in assay [1] was “binds”.

B6: DAT-C11 (peptide)
peptide: RQFTLRHWLKV
As to B6, the binding entry in assay [1] is recorded as “binds”.

B7: C5 peptide with X2 substituted to F (HFLKV) (peptide)
peptide: HFLKV
As for B7, the binding entry in assay [2] was “binds”.

B8: DAT-C10 (peptide)
peptide: QFTLRHWLKV
Consider B8, for which the binding entry in assay [1] is recorded as “binds”.

B9: DAT-C13 (peptide)
peptide: EVRQFTLRHWLKV
B9: the binding entry in assay [1] is on record as “binds”.

B10: DAT-C9 (peptide)
peptide: FTLRHWLKV
Take B10: the binding entry in assay [1] is on record as “binds”.

B11: DAT-C6 (peptide)
peptide: RHWLKV
For the molecule B11, in assay [1], the binding entry is given as “binds”.

B12: C5 peptide with X4 substituted to R (HWLRV) (peptide)
peptide: HWLRV
Regarding B12, the binding result in assay [2] is “binds”.

B13: DAT-C7 (peptide)
peptide: LRHWLKV
As for B13, in assay [1], the binding result was “binds”.

These data come from patent publication US20250215052A1, “INHIBITORS OF PICK1 AND USES THEREOF” (University of Copenhagen, priority 2018, published 2025).
